Laboratory results: PubChem BioAssay AID504793 (Drosophila RNAi Screening Center, 2011)

- Screen: 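Knock-downs allowing continued mitosis even though DNA is damaged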 (primary screen)
- Cells: Drosophila S2R+ cells
- Reagents: long dsRNA against Drosophila genes, about 0.25 µg dsRNA per well
- Duration: 4 days of dsRNA, then 4 hours of drug before read-out
- Challenge: doxorubicin 0.5 µM for 4 hours to cause double-strand breaks, in cells also given a low, harmless dose of dsRNA against nbs to sensitise the assay
- Read-out: 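Mitotic index as the number of phospho-histone H3-positive cells in each well following doxorubicin, given as raw counts without normalisation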
- Scale: mitotic cells: higher = more cells in mitosis, weaker G2 arrest
- Hit rule: 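Genes are called active only when high mitotic counts were reproduced with independent dsRNAs and mitosis was checked for delay without damage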
- Calls: active = confirmed in follow-up tests; inactive = not confirmed
The screen tested about 23,000 reagents; this is an unselected part of those that have a named target and a result. In the full data, 62 (0.27%) got an active call. 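Calls come from follow-up tests whose scores are not deposited, so confirmed genes may have low counts here; counts are not normalised per plate.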 Raw values vary from plate to plate and are shown uncorrected. Entries without a mark were called inactive. Reagents against one gene are numbered here. No sequences are given here.

With knock-down of CG13622 #1 the results were mitotic cells, replicate 1 = 14.
With knock-down of CG13622 #2, the record shows mitotic cells, replicate 1 = 2.
Against ppk18, the entry reads mitotic cells, replicate 1 = 4.
CG10887 #1 gave mitotic cells, replicate 1 = 14.
CG10887 #2 gave mitotic cells, replicate 1 = 8.
Knock-down of Bet5 came out at: mitotic cells, replicate 1 = 11.
Depletion of CG4168 #1 gave: mitotic cells, replicate 1 = 3.
Silencing of CG4168 #2 came out at: mitotic cells, replicate 1 = 4.
CG4168 #3 scored mitotic cells, replicate 1 = 7.
CG4168 #4 gave mitotic cells, replicate 1 = 7.
CG7896 showed mitotic cells, replicate 1 = 4.
FLASH #1 scored mitotic cells, replicate 1 = 12.
FLASH #2 showed mitotic cells, replicate 1 = 8.

2 successive entries from above:
CG10887 #1 → mitotic cells, replicate 1: 14
CG10887 #2 → mitotic cells, replicate 1: 8

Next entries:
CG13558 #1 scored mitotic cells, replicate 1 = 3.
Depletion of CG13558 #2 came out at: mitotic cells, replicate 1 = 3.
After knock-down of CG42323 #1, the screen gave mitotic cells, replicate 1 = 12.
CG42323 #2 gave mitotic cells, replicate 1 = 5.
CG18581 scored mitotic cells, replicate 1 = 2.
After knock-down of Noa36, the record shows mitotic cells, replicate 1 = 9.
CG8833 scored mitotic cells, replicate 1 = 7.
For RpL39 the deposit lists mitotic cells, replicate 1 = 6.
Depletion of SNCF resulted in: mitotic cells, replicate 1 = 7.
nahoda #1 gave mitotic cells, replicate 1 = 4.
With knock-down of nahoda #2, the record shows mitotic cells, replicate 1 = 8.
